## Library screen at single concentrations

Mtb glucose medium: 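Phenotypic screen: M. tuberculosis growth, glucose 7H9 medium, 3 days; the read-out is not stated. Concentration: 50 µM. The record gives no direction; compounds that gave an IC50 in retests scored well above the rest, so higher reads as more growth inhibition. About 69,000 compounds were tested under these conditions; 1.1% (about 760) showed 50% or more at least once.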
Mtb cholesterol medium: 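Phenotypic screen: M. tuberculosis growth, cholesterol and DPPC medium, 4 days; the read-out is not stated. Compounds at 50 µM. Higher reads as more growth inhibition (inferred: compounds with an IC50 in retests scored well above the rest). Of about 69,000 compounds tested this way, about 370 (0.54%) reached 50% or more in at least one test.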

Results are given as percent effect. The record does not define 0% and 100%; most values in the screen are far below 50% and negative numbers occur (in some assays of this library far below -100). This is an unselected part of the compounds tested. Two or more numbers in one place are separate tests of the same structure; such repeats can differ widely.

| compound | Mtb glucose medium | Mtb cholesterol medium |
|---|---|---|
| `Cc1cnn(CC2CCCN2Cc2ncc(-c3ccccc3)o2)c1` (configuration not stated) | -8.824 | -13.49 |
| `CN(Cc1ccc(F)c(F)c1)C(=O)CCc1nc(-c2nnc[nH]2)no1` | 3.158 | 0.3506 |
| `COc1cccc(-c2ccnc(C3CCNCC3)c2)c1` | -8.145 | -14.91 |
| `COc1ccc(-n2ncc(C(C)NC3Cc4ccccc4C3)c2C)cc1` (configuration not stated) | -3.141 | 17 |
| `COCCCNC(=O)c1c(C)noc1C(C)C` | 3.297 | -16.77 |
| `OC[C@H]1CCCN1c1nccc(-c2c[nH]nc2C2CCCCC2)n1` | 10.48 | -18.95 |
| `NS(=O)(=O)CCN1CCOC(c2ccc(Cl)cc2)C1` (configuration not stated) | -2.351 and 6.655 | -6.889 |
| `CC(=O)N1CCC1c1cc(N2CCNC(=O)C2)nc(C)n1` (configuration not stated) | -19.81 | -0.7864 and 4.199 |
| `Cc1ccoc1C(=O)N1CCn2cc(CN3CCCC3)nc2C1` | -23.83 | 10.74 and -10.43 |
| `Cc1cc(NC(=O)NCC2CCN(C(C)C)C2)no1` (configuration not stated) | -19.73 | -5.172 |
| `Cn1ccnc1SCCNc1cc(N2CCOCC2)ncn1` | 11.55 and 2.956 | 0.6085 |
| `C=C(C)COCCNC(=O)N1CCc2c(cccc2OC)C1` | -24.6 | -13.49 |
| `CCc1nc2n(n1)CC(NCc1ccccc1OCC(=O)NC)CC2` (configuration not stated) | -1.118 and 16.99 | 2.769 |
| `Cc1ccc(NC2CCN(C(=O)c3cnc(C)s3)CC2)nn1` | -39.69 | -11.8 |
| `O=c1[nH]c2csnc2c(=O)n1Cc1ccc(Br)cc1` | -5.508 and -1.099 | -1.072 |
| `Cn1cc(CN2CCCC3(CCN(C(=O)c4cnccn4)C3)C2)cn1.O=C(O)C(F)(F)F.O=C(O)C(F)(F)F` (configuration not stated) | -32.36 | -3.033 |
| `COc1ccccc1Oc1ncccc1CNC(=O)CN1CCCC1=O` | 8.568 | -0.03754 |
| `Cn1nc2c(c1NC(=O)c1ccc(C3CCCN3C3CCC3)s1)CCC2` (configuration not stated) | 23.37 | 15.55 |
| `Cc1occc1C(=O)NCC(=O)NCCCOc1ccc(F)cc1` | -4.39 and -14.54 | -5.736 |
| `O=C(NC1(c2cccc(F)c2)CCOCC1)c1ccccn1` | -33.99 | -22.3 |
| `CN(C)C(C(=O)NCC1(Cn2cccn2)CC1)c1ccc(F)cc1` (configuration not stated) | 18.94 | 4.129 |
| `CC1CCCN(Cc2ccc(CNC(=O)NCc3ccncc3)cc2)C1` (configuration not stated) | 6.673 and -22.37 | 1.848 |
| `CCC(O)CN1CCN(C(=O)c2cc(Cl)cc3cccnc23)CC1` (configuration not stated) | -1.921 | -29.83 |
| `NC(=O)c1ccnc(N2CCCC(CO)(Cc3ccc(F)cc3)C2)c1` (configuration not stated) | 27.89 | 17.38 |
| `Cc1nc[nH]c1CN1CCCC(CNC(=O)c2ccc(N)nc2)C1` (configuration not stated) | -8.677 | -4.074 and 0.3318 |
| `CCc1ccccc1-c1cc(C)nc(N)n1` | 17.41 | 5.772 |
| `CC(C)(C)CC(=O)N1CCCC2(CC(C(=O)Nc3ccccc3)=NO2)C1` (configuration not stated) | -13.74 | -11.82 |
| `Cc1c(C2CCCN(C(=O)c3ccn(C)n3)C2)n2c(nc1=O)CCC2` (configuration not stated) | -11.89 | 8.223 |
| `O=C1CCCN1CCCNCc1cc(O)c2cccc(F)c2n1` | -15.8 | -23.56 |
| `Cc1cc(N2CCC(NCCOc3ccccc3)CC2)nc(C)n1` | -8.335 | -19.93 |
| `c1cnn(CC2CN(CCCOc3ccc4c(c3)OCO4)CCO2)c1` (configuration not stated) | 12.33 | -2.306 |
| `Cc1cc(C(F)(F)F)cc(=O)n1CCCn1cnnn1` | 1.918 and -15.89 | -3.084 |
| `CCOC1CCN(CC(=O)Nc2oc(C)c3c(C)n[nH]c(=O)c23)CC1` | -5.906 | -0.8686 |
| `O=C(c1cccc(S(=O)(=O)NCCCc2ncc[nH]2)c1)N1CCOCC1` | -13.58 and -4.246 | -18.1 |
| `CCS(=O)(=O)NCCN1CCc2ccc(F)cc2C1C` (configuration not stated) | 5.373 | 6.17 |
| `O=C(Cc1csc(-c2ccccc2)n1)N[C@@H](C(=O)O)c1ccccc1` | 12.92 | 4.905 |
| `O=C(C1CCCCC1)N1CCC2(CCCN2CC2CC2)CC1.O=C(O)C(F)(F)F` | -0.4282 | 15.55 |
| `Cn1ccc(C(=O)NCc2ccc(Cn3ccnc3)cc2)cc1=O` | 23.62 | 16.42 |
| `Cc1noc(C)c1-c1n[nH]c2c1CN(S(=O)(=O)c1cccnc1)CC2` | -7.166 and -0.1381 | 13.45 |
| `CN(Cc1cscn1)Cc1cc2c(cc1Br)OCO2` | -19.55 and 6.402 | 8.648 |
| `O=C(c1cccc(F)c1)N(CCCO)S(=O)(=O)c1cccs1` | 14.66 | 1.676 |
| `Cc1nc(C(C)(C)NCc2ncc(C3CC3)o2)sc1C` | -25.61 and 12.13 | -15.02 |
| `O=C(N[C@@H]1CCN(C(=O)c2cc[nH]c2)C[C@H]1O)c1ccccn1` | 2.437 | -7.47 and -19.77 |
| `CNC(=O)COC(=O)c1ccn(-c2ccc(Cl)c(Cl)c2)n1` | -21.62 | -23.06 |
| `CCC1CN(C(=O)c2csc(-c3cnn(C)c3)n2)CCO1` (configuration not stated) | 31.74 | 2.767 |
| `CCSCC(C)NCc1cn2ccccc2n1` (configuration not stated) | -7.734 | 4.13 |
| `Cc1ncc(CN2CC[C@@](C)(O)[C@H](Oc3cccc(F)c3)C2)cn1` | -17.1 | -28.75 |
| `Cl.O[C@@H]1CN(Cc2cccc(F)c2)CC[C@H]1NCc1ccccn1` | 3.583 | -10.16 and -0.7972 |
| `C[C@@H]1CN(Cc2ccncc2)C[C@]1(C)O` | 2.634 | 0.9736 |
| `CC(C)N1CCC2(CC1)CC(=O)N(Cc1cc(F)cc(F)c1)C2` | -5.393 | -27.08 |
| `Cc1cc(C(=O)N2CCNC(=O)CC2)c(C)n1CC(F)(F)F` | -7.004 and 0.7138 | -31.58 |
| `COc1c(C)cnc(CN2CCCC2c2noc(C3CC3)n2)c1C` (configuration not stated) | -16.05 | -26.5 |
| `CN(C)CCN1CCN(C)c2nc(-c3ccccc3)ncc2C1=O` | 25.72 | 13.27 |
| `O=C(c1cnccn1)N1CCC2(CCN(Cc3ccsc3)CC2)CC1` | 16.32 | -14.27 |
| `CN(C)c1ncnc2c1CCN(c1ccccc1)CC2` | -9.271 and -23.93 | -10.39 |
| `N#Cc1ccccc1N1CCCN(C(=O)CCc2ccco2)CC1` | 24.76 | 17.57 |
| `O=C1C(Nc2ccc3nccnc3n2)CCN1c1ccccc1` (configuration not stated) | 15.39 | -0.6954 |
| `[H][C@]12CC[C@]([H])(CN(c3ncccn3)C1)N(Cc1ccc(NC(C)=O)cc1)C2` | 37.71 | 9.127 |
| `COCCNC(=O)C1CN(Cc2nccs2)Cc2ccnn2C1.O=C(O)C(F)(F)F.O=C(O)C(F)(F)F` (configuration not stated) | 23.33 | -6.594 |
| `COCc1nn(CC2CC2)c2c1CN(Cc1cncn1C)CC2.O=C(O)C(F)(F)F` | -13.34 | 0.7807 |
| `O=C(O)C(F)(F)F.O=C(O)C(F)(F)F.[H][C@@]12CCN(C(=O)c3cnccn3)C[C@]1([H])[C@@H](CN1CCN(C)CC1)OC2` | 5.606 | -7.599 |

Once more, the final 5:

- O=C1C(Nc2ccc3nccnc3n2)CCN1c1ccccc1 (configuration not stated) | Mtb glucose medium: 15.39%; Mtb cholesterol medium: -0.6954%
- [H][C@]12CC[C@]([H])(CN(c3ncccn3)C1)N(Cc1ccc(NC(C)=O)cc1)C2 | Mtb glucose medium: 37.71%; Mtb cholesterol medium: 9.127%
- COCCNC(=O)C1CN(Cc2nccs2)Cc2ccnn2C1.O=C(O)C(F)(F)F.O=C(O)C(F)(F)F (configuration not stated) | Mtb glucose medium: 23.33%; Mtb cholesterol medium: -6.594%
- COCc1nn(CC2CC2)c2c1CN(Cc1cncn1C)CC2.O=C(O)C(F)(F)F | Mtb glucose medium: -13.34%; Mtb cholesterol medium: 0.7807%
- O=C(O)C(F)(F)F.O=C(O)C(F)(F)F.[H][C@@]12CCN(C(=O)c3cnccn3)C[C@]1([H])[C@@H](CN1CCN(C)CC1)OC2 | Mtb glucose medium: 5.606%; Mtb cholesterol medium: -7.599%

From ChEMBL document CHEMBL3988442, “University of Dundee, Small-Polar-MMV Screening Library” (2021).